Laboratory results: the supplement of paper PMC8728848
This is one part of the list.

Assays:
Assay in all cases: glycan array binding signal (z-score within array); higher = stronger binding
Conditions in all cases: glycan notation: IUPAC condensed, linker removed
[1] = molecular target: Neu5Ac(a2-3)Gal(b1-4)GlcNAc(b1-6)GalNAc
Procedure, shortened: (§1)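 Negative Z-scores can be read as non-binding. The Z-score is calculated within each array and then averaged across arrays of one protein sequence at different concentrations or buffers and across linkers. Arrays, 3228 in all, were curated from the Consortium for Functional Glycomics database and kept only where the protein sequence was available.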

[2] = molecular target: Neu5Ac(a2-3)Gal(b1-4)GlcNAc(b1-6)[Gal(b1-3)]GalNAc
Procedure, shortened: as §1

[3] = molecular target: Neu5Ac(a2-3)Gal(b1-4)GlcNAc(b1-6)[Neu5Ac(a2-3)Gal(b1-3)]GalNAc
Procedure, shortened: as §1

[4] = molecular target: Neu5Ac(a2-3)Gal(b1-4)GlcNAc6S
Procedure, shortened: as §1

[5] = molecular target: Neu5Ac(a2-3)Gal(b1-4)[Fuc(a1-3)]GlcNAc
Procedure, shortened: as §1

[6] = molecular target: Neu5Ac(a2-3)Gal(b1-4)[Fuc(a1-3)]GlcNAc(b1-2)Man
Procedure, shortened: as §1

[7] = molecular target: Neu5Ac(a2-3)Gal(b1-4)[Fuc(a1-3)]GlcNAc(b1-3)Gal
Procedure, shortened: as §1

[8] = molecular target: Neu5Ac(a2-3)Gal(b1-4)[Fuc(a1-3)]GlcNAc(b1-3)Gal(b1-4)GlcNAc
Procedure, shortened: as §1

[9] = molecular target: Neu5Ac(a2-3)Gal(b1-4)[Fuc(a1-3)]GlcNAc(b1-3)Gal(b1-4)[Fuc(a1-3)]GlcNAc(b1-3)Gal(b1-4)[Fuc(a1-3)]GlcNAc
Procedure, shortened: as §1

[10] = molecular target: Neu5Ac(a2-3)Gal(b1-4)[Fuc(a1-3)]GlcNAc(b1-3)GalNAc
Procedure, shortened: as §1

[11] = molecular target: Neu5Ac(a2-3)Gal(b1-4)[Fuc(a1-3)]GlcNAc(b1-6)[Gal(b1-3)]GalNAc
Procedure, shortened: as §1

[12] = molecular target: Neu5Ac(a2-3)Gal(b1-4)[Fuc(a1-3)]GlcNAc(b1-6)[Neu5Ac(a2-3)Gal(b1-3)]GalNAc
Procedure, shortened: as §1

[13] = molecular target: Neu5Ac(a2-3)Gal(b1-4)[Fuc(a1-3)]GlcNAc6S
Procedure, shortened: as §1

[14] = molecular target: Neu5Ac(a2-3)Gal6S(b1-4)GlcNAc
Procedure, shortened: as §1

[15] = molecular target: Neu5Ac(a2-3)Gal6S(b1-4)[Fuc(a1-3)]GlcNAc
Procedure, shortened: as §1

Neu5Ac(a2-3)GalNAc = molecular target: Neu5Ac(a2-3)GalNAc
Procedure, shortened: as §1

[16] = molecular target: Neu5Ac(a2-3)GalNAc(b1-4)GlcNAc
Procedure, shortened: as §1

[17] = molecular target: Neu5Ac(a2-3)[GalNAc(b1-4)]Gal(b1-4)Glc
Procedure, shortened: as §1

[18] = molecular target: Neu5Ac(a2-3)[GalNAc(b1-4)]Gal(b1-4)GlcNAc
Procedure, shortened: as §1

[19] = molecular target: Neu5Ac(a2-3)[GalNAc(b1-4)]Gal(b1-4)GlcNAc(b1-3)GalNAc
Procedure, shortened: as §1

[20] = molecular target: Neu5Ac(a2-3)[Neu5Ac(a2-6)]GalNAc
Procedure, shortened: as §1

Neu5Ac(a2-6)Gal = molecular target: Neu5Ac(a2-6)Gal
Procedure, shortened: as §1

[21] = molecular target: Neu5Ac(a2-6)Gal(b1-3)GlcNAc(b1-3)[Gal(b1-4)GlcNAc(b1-6)]Gal(b1-4)Glc
Procedure, shortened: as §1

Neu5Ac(a2-6)Gal(b1-4)Glc = molecular target: Neu5Ac(a2-6)Gal(b1-4)Glc
Procedure, shortened: as §1

[22] = molecular target: Neu5Ac(a2-6)Gal(b1-4)GlcNAc
Procedure, shortened: as §1

[23] = molecular target: Neu5Ac(a2-6)Gal(b1-4)GlcNAc(b1-2)Man
Procedure, shortened: as §1

[24] = molecular target: Neu5Ac(a2-6)Gal(b1-4)GlcNAc(b1-2)Man(a1-3)Man(b1-4)GlcNAc(b1-4)GlcNAc
Procedure, shortened: as §1

[25] = molecular target: Neu5Ac(a2-6)Gal(b1-4)GlcNAc(b1-2)Man(a1-3)[Gal(b1-4)GlcNAc(b1-2)Man(a1-6)]Man(b1-4)GlcNAc(b1-4)GlcNAc
Procedure, shortened: as §1

[26] = molecular target: Neu5Ac(a2-6)Gal(b1-4)GlcNAc(b1-2)Man(a1-3)[GlcNAc(b1-2)Man(a1-6)]Man(b1-4)GlcNAc(b1-4)GlcNAc
Procedure, shortened: as §1

[27] = molecular target: Neu5Ac(a2-6)Gal(b1-4)GlcNAc(b1-2)Man(a1-3)[GlcNAc(b1-4)][Neu5Ac(a2-6)Gal(b1-4)GlcNAc(b1-2)Man(a1-6)]Man(b1-4)GlcNAc(b1-4)GlcNAc
Procedure, shortened: as §1

B1: TAL6-6LysM (Trichoderma atroviride) (protein)
chain: AASKLGVPQPAQRDQVNCQLYAVQPNDNCIDISSKNNITYAQLLSWNPSLSSTCSNLASLNSSSICVSNPKGTFSISSNTVGATDIATTTAPVPSPTLDQTTSRCAKYYQVSDGDDCSHLTAQFAITLKDFIFLNSEVWQNCTNLELGYYYCVEPVGYISTYPGYLPTATTKPFNQTSATSLPYDGDPWARFSSNSSVIPIANGTRVDCYSYVYVKNLTENLFADCWNMASMYEITREELVLWNPSLGNDGSSGSNLSGAEASQVASSIAIPTTAPSSITTNLYTYPCTVAANISYCVALVSSTGALPTNTAPPGPHASGEISNCTAWFAPEAYDTCKSILDIFEMSFANFYKMNPSVGPDCSGLAVGTNYCVSTYPNGEDPNDDWDGDDSIPSISPTGIITPTPTQSGMVSNCNKFYDVHSNDGCSAIASSQHVDLSSLYKWNPAIKTDCSGLQASVYVCIGILTTSMSTTSKLPTTTSKPSTTSKPPTGITTPTPTQSGMVKNCNKFYDVHSGDGCSAIASSQKVNLSSFYLWNPAVKTDCSGLQASVFVCIGTLTTSMSTTTSKLPTTTSKPSTTSKPPTGIITPTPTQNGMVKNCNKFYDVHSGDGCSAIASSQKVNLSSFYLWNPAVKTDCSGLQASVFVCVGTATTTTAAGITTPTPTQSGMVSGCNKFYDVHAGDGCSAIASSQKIALSSLYKWNPAVKTDCSGLQASVYICIGVGNAAAARVTGAAASFLEQKLISEEDLNSAVDHHHHHH
For B1, the “glycan array binding signal (z-score)” value [1] was 0.787, the “glycan array binding signal (z-score)” value [2] was -1.45 and the “glycan array binding signal (z-score)” value [3] was -1.14. For the same binder, the “glycan array binding signal (z-score)” value [4] was -0.46, the “glycan array binding signal (z-score)” value [5] was -0.196 and the “glycan array binding signal (z-score)” value [6] was -0.794. The “glycan array binding signal (z-score)” value [7] was 0.169, the “glycan array binding signal (z-score)” value [8] was -0.591 and the “glycan array binding signal (z-score)” value [9] was 0.058. For the same binder, the “glycan array binding signal (z-score)” value [10] was -0.077, the “glycan array binding signal (z-score)” value [11] was 0.958 and the “glycan array binding signal (z-score)” value [12] was -0.367. For the same binder, the “glycan array binding signal (z-score)” value [13] was 0.059, the “glycan array binding signal (z-score)” value [14] was 0.428 and the “glycan array binding signal (z-score)” value [15] was -1.04. The “glycan array binding signal (z-score)” value (Neu5Ac(a2-3)GalNAc) was 0.267, the “glycan array binding signal (z-score)” value [16] was -0.545 and the “glycan array binding signal (z-score)” value [17] was -1.28. The “glycan array binding signal (z-score)” value [18] was -1.08, the “glycan array binding signal (z-score)” value [19] was 1.67 and the “glycan array binding signal (z-score)” value [20] was 0.399. For the same binder, the “glycan array binding signal (z-score)” value (Neu5Ac(a2-6)Gal) was -0.907, the “glycan array binding signal (z-score)” value [21] was -0.73 and the “glycan array binding signal (z-score)” value (Neu5Ac(a2-6)Gal(b1-4)Glc) was 0.029. The “glycan array binding signal (z-score)” value [22] was -0.077, the “glycan array binding signal (z-score)” value [23] was -0.567 and the “glycan array binding signal (z-score)” value [24] was -0.142. The “glycan array binding signal (z-score)” value [25] was 0.695, the “glycan array binding signal (z-score)” value [26] was 0.742 and the “glycan array binding signal (z-score)” value [27] was 0.064.
